Assay results as given in the supplement of paper PMC6078165.
Values are relative to the signal before dosing, not to a vehicle control; the signal also falls without drug.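 Fibroblast labels name human fibroblasts: mostly primary ones from tissues such as uterus (C12385, HUF), lung (H6013), bone (Hs27A), adrenal (HADF) and skin (WS1), plus mammary HMF and breast cancer-associated Hs343T. The cancer cells are basal-like or mesenchymal-like triple-negative breast cancer lines. The paper calls a changed response a hit when it shifts by more than 3x the replicate standard deviation. The tissue of the other fibroblasts is not given here.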

Tested on: BT20
Test: relative JC-1 red fluorescence (viability) vs pre-drug, coculture with fibroblast (fraction); higher = more viable cancer cells
Experimental: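 JC-1 labelled TNBC cells cocultured 1:1 (1,500 cells each) with CellTrace Violet stained primary or stromal fibroblasts in 384-well plates in FluoroBrite medium, treated with one of 42 anticancer drugs at 0.1, 1, 10 or 100 uM. JC-1 red fluorescence (mitochondrial integrity in cancer cells only) was read by plate reader every 8 h for 72 h. Values are normalised to each well's pre-drug value. The stock of one drug was tenfold lower, so its dose labels may be too high.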

CC[C@]1(O)C[C@H]2CN(CCc3c([nH]c4ccccc34)[C@@](C(=O)OC)(c3cc4c(cc3OC)N(C=O)[C@H]3[C@@](O)(C(=O)OC)[C@H](OC(C)=O)[C@]5(CC)C=CCN6CC[C@]43[C@@H]65)C2)C1 [Vincristine]
relative JC-1 red fluorescence
Settings | 8 h | 16 h | 24 h | 32 h | 40 h | 48 h | 56 h | 64 h | 72 h
0.1 µM, coculture fibroblast: C12385 | 0.875 | 0.844 | 0.838 | 0.797 | 0.761 | 0.752 | 0.753 | 0.778 | 0.795
0.1 µM, coculture fibroblast: H6013 | 0.944 | 0.955 | 0.882 | 0.892 | 0.9098 | 0.873 | 0.933 | 0.81 | 0.779
0.1 µM, coculture fibroblast: H6019 | 0.874 | 0.816 | 0.823 | 0.771 | 0.727 | 0.722 | 0.704 | 0.688 | 0.673
0.1 µM, coculture fibroblast: H6076 | 0.925 | 0.941 | 0.887 | 0.882 | 0.878 | 0.884 | 0.895 | 0.919 | 0.923
0.1 µM, coculture fibroblast: H6231 | 0.963 | 0.887 | 0.814 | 0.759 | 0.75 | 0.727 | 0.711 | 0.711 | 0.712
0.1 µM, coculture fibroblast: HADF | 0.945 | 0.917 | 0.939 | 0.9169 | 0.906 | 0.8855 | 0.92339 | 0.942 | 0.9397
0.1 µM, coculture fibroblast: HCFa | 0.941 | 0.901 | 0.891 | 0.85 | 0.821 | 0.805 | 0.8 | 0.778 | 0.732
0.1 µM, coculture fibroblast: HCPF | 0.973 | 0.907 | 0.847 | 0.813 | 0.796 | 0.752 | 0.751 | 0.765 | 0.761
0.1 µM, coculture fibroblast: HHSteC | 0.947 | 0.916 | 0.899 | 0.814 | 0.785 | 0.772 | 0.764 | 0.762 | 0.748
0.1 µM, coculture fibroblast: HMF | 0.915 | 0.884 | 0.779 | 0.732 | 0.684 | 0.645 | 0.653 | 0.646 | 0.664
0.1 µM, coculture fibroblast: HPFa | 0.921 | 0.822 | 0.779 | 0.859 | 0.854 | 0.838 | 0.834 | 0.836 | 0.82
0.1 µM, coculture fibroblast: HUF | 0.874 | 0.775 | 0.72736 | 0.65 | 0.605 | 0.564 | 0.548 | 0.544 | 0.537
0.1 µM, coculture fibroblast: Hs5 | 0.936 | 0.9222 | 0.8914 | 0.874 | 0.85861 | 0.847 | 0.863 | 0.857 | 0.8689
0.1 µM, coculture fibroblast: Hs27A | 0.752 | 0.763 | 0.961 | 0.948 | 0.916 | 0.912 | 0.935 | 0.929 | 0.924
0.1 µM, coculture fibroblast: Hs343T | 0.922 | 0.831 | 0.744 | 0.694 | 0.665 | 0.641 | 0.616 | 0.612 | 0.5996
0.1 µM, coculture fibroblast: WS1 | 0.865 | 0.816 | 0.789 | 0.731 | 0.678 | 0.652 | 0.631 | 0.623 | 0.634
1 µM, coculture fibroblast: C12385 | 0.903 | 0.8529 | 0.781 | 0.72 | 0.658 | 0.627 | 0.582 | 0.549 | 0.535
1 µM, coculture fibroblast: H6013 | 0.812 | 0.952 | 0.87 | 0.856 | 0.8261 | 0.8216 | 0.81 | 0.789 | 0.7909
1 µM, coculture fibroblast: H6019 | 0.8672 | 0.8259 | 0.7843 | 0.741 | 0.709 | 0.701 | 0.675 | 0.662 | 0.655
1 µM, coculture fibroblast: H6076 | 0.9901 | 0.917 | 0.8291 | 0.812 | 0.786 | 0.758 | 0.752 | 0.762 | 0.75
1 µM, coculture fibroblast: H6231 | 0.788 | 0.9271 | 0.806 | 0.717 | 0.659 | 0.591 | 0.584 | 0.547 | 0.534
1 µM, coculture fibroblast: HADF | 0.818 | 0.857 | 0.856 | 0.804 | 0.734 | 0.672 | 0.631 | 0.603 | 0.569
1 µM, coculture fibroblast: HCFa | 0.954 | 0.912 | 0.833 | 0.773 | 0.72 | 0.676 | 0.647 | 0.624 | 0.589
1 µM, coculture fibroblast: HCPF | 0.801 | 0.966 | 0.877 | 0.827 | 0.7557 | 0.701 | 0.646 | 0.628 | 0.6007
1 µM, coculture fibroblast: HHSteC | 0.9507 | 0.8752 | 0.861 | 0.795 | 0.736 | 0.707 | 0.692 | 0.674 | 0.6371
1 µM, coculture fibroblast: HMF | 0.858 | 0.927 | 0.775 | 0.71 | 0.6579 | 0.605 | 0.555 | 0.529 | 0.5013
1 µM, coculture fibroblast: HPFa | 0.9465 | 0.933 | 0.926 | 0.8368 | 0.837 | 0.775 | 0.767 | 0.751 | 0.715
1 µM, coculture fibroblast: HUF | 0.9116 | 0.816 | 0.745 | 0.675 | 0.623 | 0.566 | 0.519 | 0.496 | 0.479
1 µM, coculture fibroblast: Hs5 | 0.718 | 0.971 | 0.85 | 0.7843 | 0.7211 | 0.672 | 0.641 | 0.598 | 0.5797
1 µM, coculture fibroblast: Hs27A | 0.82508 | 0.795 | 0.9483 | 0.886 | 0.955 | 0.926 | 0.903 | 0.872 | 0.83
1 µM, coculture fibroblast: Hs343T | 0.908 | 0.936 | 0.793 | 0.73 | 0.67 | 0.618 | 0.557 | 0.537 | 0.509
1 µM, coculture fibroblast: WS1 | 0.907 | 0.859 | 0.799 | 0.737 | 0.691 | 0.656 | 0.62 | 0.59 | 0.5787
